Results are given in words; binding and its absence hold for the method and conditions named. In cells and extracts the contact can be indirect. Some binding calls cover weakened binding; strength is not graded here.

Among the data in article PMC10998878, “Inhibition of acyl-CoA binding protein (ACBP) by means of a GABAARγ2-derived peptide” (Cell Death & Disease, 2024) are binding values, retold here.

For the assay, the target named is T1, Biotinylated GABAARγ2-EP-WT (mouse).
T1 sequence (peptide, biotin (site not stated)): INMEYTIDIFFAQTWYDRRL
The assay can be described thus: pull-down; biotinylated WT or F77I eicosapeptide (1x, 2x, 4x) on beads, incubated with 500 µg mouse liver protein extract overnight at 4 °C, three PBS washes, immunoblot for ACBP; only the target purified. A general note: In western blotting, separated proteins are transferred to a membrane and probed.

B1: endogenous (native) ACBP/DBI of mouse liver (protein, UniProt P31786 1-87)
chain: MSQAEFDKAAEEVKRLKTQPTDEEMLFIYSHFKQATVGDVNTDRPGLLDLKGKAKWDSWNKLKGTSKESAMKTYVEKVDELKKKYGI
In the case of B1, the binding entry is “binds”.
